This is one part of the list.
Columns and labels:
Assay in all cases: log2 fold change, soluble protein after heating vs DMSO (PISA); higher = thermal stabilisation; K562 cells, 10 uM, 30 min; active = over 0.2 and 3.5 SD of the protein, either way, in both replicates (recomputed)
[1] = compound: CS(=O)(=O)c1ccc(-c2cnc(N)c(C(=O)Nc3ccccc3)n2)cc1
In short: (§1)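 Soluble protein was defined as the supernatant after 21,000xg for 90 min. It came from K562 cells at 2×10^6 cells/mL given 10 μM compound for 30 min, heated in aliquots for 3 min across 48°C-58°C, pooled, and extracted in PBS with 0.5% NP-40 at 4°C, and was quantified by TMTpro 16plex LC-MS/MS with equalised channel sums. Thermal stability against control samples, from duplicates, is reported as log2 fold change.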

Chains of the proteins cited; added tags and fusions are not shown. Lines headed by an entry give the natural chain unless they say otherwise; changes in a name come on top.
UniProt Q14135: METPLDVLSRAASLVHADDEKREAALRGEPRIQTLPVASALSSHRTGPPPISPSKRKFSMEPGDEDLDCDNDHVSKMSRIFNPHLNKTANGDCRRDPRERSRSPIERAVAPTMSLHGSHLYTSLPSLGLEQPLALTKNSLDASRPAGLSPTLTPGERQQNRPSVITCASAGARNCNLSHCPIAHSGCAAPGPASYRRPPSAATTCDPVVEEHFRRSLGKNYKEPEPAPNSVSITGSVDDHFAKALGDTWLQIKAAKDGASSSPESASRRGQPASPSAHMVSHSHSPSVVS
UniProt Q96AX1: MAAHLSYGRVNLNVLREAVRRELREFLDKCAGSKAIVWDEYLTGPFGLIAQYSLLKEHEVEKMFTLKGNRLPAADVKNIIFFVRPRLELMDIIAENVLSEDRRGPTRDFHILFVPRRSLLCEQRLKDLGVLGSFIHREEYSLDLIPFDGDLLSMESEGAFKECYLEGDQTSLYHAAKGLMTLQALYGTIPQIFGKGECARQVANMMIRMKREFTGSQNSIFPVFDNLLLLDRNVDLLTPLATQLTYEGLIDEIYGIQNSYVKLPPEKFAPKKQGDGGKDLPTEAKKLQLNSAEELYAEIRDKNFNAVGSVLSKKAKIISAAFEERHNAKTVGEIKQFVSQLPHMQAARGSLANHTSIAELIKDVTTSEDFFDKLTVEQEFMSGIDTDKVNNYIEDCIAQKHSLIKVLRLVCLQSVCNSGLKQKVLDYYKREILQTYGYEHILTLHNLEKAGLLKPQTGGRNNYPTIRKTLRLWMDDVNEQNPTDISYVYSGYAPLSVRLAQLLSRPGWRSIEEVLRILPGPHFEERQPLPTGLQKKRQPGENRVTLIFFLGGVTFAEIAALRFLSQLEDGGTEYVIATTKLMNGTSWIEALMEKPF
UniProt O94967: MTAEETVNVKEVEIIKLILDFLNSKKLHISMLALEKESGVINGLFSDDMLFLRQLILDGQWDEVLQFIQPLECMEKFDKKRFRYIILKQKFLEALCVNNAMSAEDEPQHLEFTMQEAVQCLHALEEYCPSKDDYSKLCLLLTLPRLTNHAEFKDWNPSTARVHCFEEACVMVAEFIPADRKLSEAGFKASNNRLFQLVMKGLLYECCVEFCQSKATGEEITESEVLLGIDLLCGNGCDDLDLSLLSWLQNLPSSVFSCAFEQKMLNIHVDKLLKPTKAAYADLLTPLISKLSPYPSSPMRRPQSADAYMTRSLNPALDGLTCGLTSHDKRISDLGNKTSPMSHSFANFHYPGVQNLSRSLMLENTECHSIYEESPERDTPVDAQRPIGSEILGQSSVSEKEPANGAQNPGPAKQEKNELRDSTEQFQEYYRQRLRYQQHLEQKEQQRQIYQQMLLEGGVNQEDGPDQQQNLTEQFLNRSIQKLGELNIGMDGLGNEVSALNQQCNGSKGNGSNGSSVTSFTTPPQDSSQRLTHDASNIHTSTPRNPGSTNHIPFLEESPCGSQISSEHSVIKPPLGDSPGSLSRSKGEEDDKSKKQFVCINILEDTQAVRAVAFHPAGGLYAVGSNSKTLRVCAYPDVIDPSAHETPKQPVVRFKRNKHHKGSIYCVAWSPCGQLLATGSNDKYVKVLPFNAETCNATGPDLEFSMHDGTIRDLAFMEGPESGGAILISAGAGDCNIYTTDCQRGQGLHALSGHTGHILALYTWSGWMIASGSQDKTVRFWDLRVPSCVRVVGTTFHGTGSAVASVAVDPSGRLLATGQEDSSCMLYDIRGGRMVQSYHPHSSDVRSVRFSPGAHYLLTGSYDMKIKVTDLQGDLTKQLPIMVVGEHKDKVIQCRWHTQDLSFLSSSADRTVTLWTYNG
UniProt Q562E7: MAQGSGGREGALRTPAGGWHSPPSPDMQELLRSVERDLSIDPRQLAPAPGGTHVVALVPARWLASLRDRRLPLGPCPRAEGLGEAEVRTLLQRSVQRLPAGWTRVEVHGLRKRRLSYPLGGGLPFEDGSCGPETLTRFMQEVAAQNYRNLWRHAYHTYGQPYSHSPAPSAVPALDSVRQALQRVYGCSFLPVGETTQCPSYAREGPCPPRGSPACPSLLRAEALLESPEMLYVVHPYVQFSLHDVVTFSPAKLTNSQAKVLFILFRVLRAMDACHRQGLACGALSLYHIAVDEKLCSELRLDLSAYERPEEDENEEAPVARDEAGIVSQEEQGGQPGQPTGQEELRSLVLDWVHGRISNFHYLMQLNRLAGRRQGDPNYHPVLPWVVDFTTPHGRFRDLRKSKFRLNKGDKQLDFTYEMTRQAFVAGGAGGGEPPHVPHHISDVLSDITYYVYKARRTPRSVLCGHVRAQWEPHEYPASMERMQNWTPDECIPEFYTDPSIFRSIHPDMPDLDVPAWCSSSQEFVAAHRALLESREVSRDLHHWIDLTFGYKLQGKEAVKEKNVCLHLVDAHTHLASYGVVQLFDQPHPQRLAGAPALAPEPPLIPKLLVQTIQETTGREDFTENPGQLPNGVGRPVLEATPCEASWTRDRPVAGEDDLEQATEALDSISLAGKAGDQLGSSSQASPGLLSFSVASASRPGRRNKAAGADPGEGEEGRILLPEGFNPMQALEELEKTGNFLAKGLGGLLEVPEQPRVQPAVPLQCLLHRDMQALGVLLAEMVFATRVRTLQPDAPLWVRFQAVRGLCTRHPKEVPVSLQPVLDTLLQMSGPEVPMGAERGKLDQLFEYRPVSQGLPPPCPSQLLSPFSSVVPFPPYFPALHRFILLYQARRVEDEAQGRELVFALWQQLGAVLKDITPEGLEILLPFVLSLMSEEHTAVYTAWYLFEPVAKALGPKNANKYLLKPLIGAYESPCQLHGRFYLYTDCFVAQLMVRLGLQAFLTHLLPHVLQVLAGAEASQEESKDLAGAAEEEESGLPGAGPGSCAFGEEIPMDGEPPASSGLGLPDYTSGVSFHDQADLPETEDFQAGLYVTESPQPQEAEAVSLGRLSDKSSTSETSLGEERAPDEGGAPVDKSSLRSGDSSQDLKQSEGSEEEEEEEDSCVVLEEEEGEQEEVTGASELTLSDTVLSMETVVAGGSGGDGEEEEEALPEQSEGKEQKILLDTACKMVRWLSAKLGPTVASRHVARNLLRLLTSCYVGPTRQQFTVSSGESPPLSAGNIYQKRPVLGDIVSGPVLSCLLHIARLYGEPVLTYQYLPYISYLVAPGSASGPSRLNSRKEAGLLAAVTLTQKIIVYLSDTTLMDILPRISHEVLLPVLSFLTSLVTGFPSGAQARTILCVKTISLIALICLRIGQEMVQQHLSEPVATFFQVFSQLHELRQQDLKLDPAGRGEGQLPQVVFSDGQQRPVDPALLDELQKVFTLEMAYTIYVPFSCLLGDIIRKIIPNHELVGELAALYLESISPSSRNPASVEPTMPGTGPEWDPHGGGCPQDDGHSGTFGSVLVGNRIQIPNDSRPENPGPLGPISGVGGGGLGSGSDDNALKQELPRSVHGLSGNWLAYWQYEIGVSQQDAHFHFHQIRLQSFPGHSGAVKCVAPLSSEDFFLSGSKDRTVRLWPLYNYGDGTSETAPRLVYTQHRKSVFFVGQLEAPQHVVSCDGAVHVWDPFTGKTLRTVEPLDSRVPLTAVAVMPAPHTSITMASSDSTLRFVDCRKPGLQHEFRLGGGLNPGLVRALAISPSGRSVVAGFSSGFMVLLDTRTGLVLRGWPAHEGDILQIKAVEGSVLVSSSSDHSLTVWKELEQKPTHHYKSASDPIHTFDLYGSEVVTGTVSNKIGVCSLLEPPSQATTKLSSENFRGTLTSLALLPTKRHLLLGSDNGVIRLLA
UniProt Q9Y2I8: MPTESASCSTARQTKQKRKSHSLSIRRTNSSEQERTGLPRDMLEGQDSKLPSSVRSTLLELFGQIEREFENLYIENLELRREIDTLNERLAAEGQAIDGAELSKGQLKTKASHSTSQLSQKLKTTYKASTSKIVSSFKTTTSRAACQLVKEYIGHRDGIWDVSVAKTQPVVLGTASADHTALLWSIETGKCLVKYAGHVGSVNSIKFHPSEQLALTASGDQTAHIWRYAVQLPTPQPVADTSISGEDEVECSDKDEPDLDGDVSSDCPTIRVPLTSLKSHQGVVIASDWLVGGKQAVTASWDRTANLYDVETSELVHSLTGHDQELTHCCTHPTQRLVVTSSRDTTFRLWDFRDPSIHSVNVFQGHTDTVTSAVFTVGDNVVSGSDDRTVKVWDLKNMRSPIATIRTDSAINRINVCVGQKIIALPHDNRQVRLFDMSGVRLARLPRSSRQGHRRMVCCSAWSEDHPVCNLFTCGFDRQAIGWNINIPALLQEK
UniProt Q9H269: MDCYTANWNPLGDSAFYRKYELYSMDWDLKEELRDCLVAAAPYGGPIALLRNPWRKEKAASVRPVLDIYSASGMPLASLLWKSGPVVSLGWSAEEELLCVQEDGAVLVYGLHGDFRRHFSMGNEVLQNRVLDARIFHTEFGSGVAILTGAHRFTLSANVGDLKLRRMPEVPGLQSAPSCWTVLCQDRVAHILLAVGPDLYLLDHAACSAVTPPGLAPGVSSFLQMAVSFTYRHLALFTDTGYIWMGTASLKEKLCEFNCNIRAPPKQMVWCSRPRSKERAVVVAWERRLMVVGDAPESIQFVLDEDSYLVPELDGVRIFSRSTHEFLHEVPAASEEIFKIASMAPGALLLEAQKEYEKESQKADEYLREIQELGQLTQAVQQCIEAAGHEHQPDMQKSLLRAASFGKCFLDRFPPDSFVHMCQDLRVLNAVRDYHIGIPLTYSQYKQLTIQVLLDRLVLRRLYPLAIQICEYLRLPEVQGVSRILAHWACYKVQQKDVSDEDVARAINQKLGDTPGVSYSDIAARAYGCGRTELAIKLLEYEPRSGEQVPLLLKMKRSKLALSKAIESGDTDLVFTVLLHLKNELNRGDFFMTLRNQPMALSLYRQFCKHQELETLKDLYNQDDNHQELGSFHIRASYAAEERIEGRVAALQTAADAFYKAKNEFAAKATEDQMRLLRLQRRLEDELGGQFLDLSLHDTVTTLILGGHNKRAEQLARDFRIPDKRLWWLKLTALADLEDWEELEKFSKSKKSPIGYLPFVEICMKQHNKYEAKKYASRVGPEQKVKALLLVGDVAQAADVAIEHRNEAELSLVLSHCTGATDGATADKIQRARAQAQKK
UniProt Q12768: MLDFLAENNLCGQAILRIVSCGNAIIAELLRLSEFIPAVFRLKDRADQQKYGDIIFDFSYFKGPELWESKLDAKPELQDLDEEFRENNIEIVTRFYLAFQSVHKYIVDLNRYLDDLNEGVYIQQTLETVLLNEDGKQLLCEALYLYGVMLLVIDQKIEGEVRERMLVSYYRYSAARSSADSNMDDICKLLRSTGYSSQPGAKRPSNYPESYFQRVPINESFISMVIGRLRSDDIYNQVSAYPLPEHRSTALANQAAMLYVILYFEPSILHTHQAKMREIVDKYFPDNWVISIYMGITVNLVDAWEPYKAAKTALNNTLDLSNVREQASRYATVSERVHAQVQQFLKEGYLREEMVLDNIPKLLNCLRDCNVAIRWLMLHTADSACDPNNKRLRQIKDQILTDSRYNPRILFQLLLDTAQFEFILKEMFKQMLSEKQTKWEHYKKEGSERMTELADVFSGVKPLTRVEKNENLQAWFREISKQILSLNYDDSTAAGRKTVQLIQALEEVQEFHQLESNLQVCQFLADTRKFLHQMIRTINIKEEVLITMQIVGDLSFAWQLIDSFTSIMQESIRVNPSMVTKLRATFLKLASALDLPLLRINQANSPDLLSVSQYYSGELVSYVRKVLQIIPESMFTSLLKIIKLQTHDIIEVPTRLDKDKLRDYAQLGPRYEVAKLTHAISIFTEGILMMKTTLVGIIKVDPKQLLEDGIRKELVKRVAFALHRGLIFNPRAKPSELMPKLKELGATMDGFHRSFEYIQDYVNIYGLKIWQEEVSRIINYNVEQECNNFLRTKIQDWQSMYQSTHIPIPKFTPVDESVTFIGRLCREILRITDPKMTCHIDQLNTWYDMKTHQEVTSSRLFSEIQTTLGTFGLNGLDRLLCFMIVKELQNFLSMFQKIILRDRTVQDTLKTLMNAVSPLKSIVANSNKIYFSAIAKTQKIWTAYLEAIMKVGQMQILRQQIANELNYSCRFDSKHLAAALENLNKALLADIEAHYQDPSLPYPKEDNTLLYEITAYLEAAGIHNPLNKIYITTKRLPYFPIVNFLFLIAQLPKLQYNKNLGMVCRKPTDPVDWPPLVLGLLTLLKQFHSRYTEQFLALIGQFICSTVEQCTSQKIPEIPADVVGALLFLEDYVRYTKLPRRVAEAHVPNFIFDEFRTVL
UniProt Q9H7M9, whole entry, looked up: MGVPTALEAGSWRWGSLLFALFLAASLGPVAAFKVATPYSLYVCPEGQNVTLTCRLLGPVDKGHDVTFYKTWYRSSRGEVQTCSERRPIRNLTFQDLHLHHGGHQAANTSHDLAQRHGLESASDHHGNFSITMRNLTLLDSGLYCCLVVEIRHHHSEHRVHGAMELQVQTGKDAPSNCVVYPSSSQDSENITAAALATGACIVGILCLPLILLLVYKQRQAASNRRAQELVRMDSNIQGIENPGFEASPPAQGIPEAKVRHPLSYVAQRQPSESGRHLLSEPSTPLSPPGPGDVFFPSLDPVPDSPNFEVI

crizotinib = compound: C[C@@H](Oc1cc(-c2cnn(C3CCNCC3)c2)cnc1N)c1c(Cl)ccc(F)c1Cl [crizotinib]
In short: as §1

[2] = compound: C[C@@H]1COCCN1C2=NC(=NC(=C2)C3(CC3)S(=O)(=O)C)C4=C5C=CNC5=CC=C4
In short: as §1

[3] = compound: C[C@H](C1=CC=C(C=C1)C(=O)NC2=C3C=CNC3=NC=C2)N
In short: as §1

gandotinib = compound: Cc1cc(Nc2cc(CN3CCOCC3)c3nc(C)c(Cc4ccc(Cl)cc4F)n3n2)n[nH]1 [gandotinib]
In short: as §1

[4] = compound: Cc1cc(SCc2sc(-c3ccc(C(F)(F)F)cc3)nc2C)ccc1OCC(=O)O
In short: as §1

doramapimod = compound: Cc1ccc(-n2nc(C(C)(C)C)cc2NC(=O)Nc2ccc(OCCN3CCOCC3)c3ccccc23)cc1 [doramapimod]
In short: as §1

ispinesib = compound: Cc1ccc(C(=O)N(CCCN)[C@@H](c2nc3cc(Cl)ccc3c(=O)n2Cc2ccccc2)C(C)C)cc1 [ispinesib]
In short: as §1

bafetinib = compound: Cc1ccc(NC(=O)c2ccc(CN3CC[C@H](N(C)C)C3)c(C(F)(F)F)c2)cc1Nc1nccc(-c2cncnc2)n1 [bafetinib]
In short: as §1

[5] = compound: Cc1cccc(CC(=O)N2CCc3c2ccc(-c2cn(C)c4ncnc(N)c24)c3F)n1
In short: as §1

nilotinib = compound: Cc1cn(-c2cc(NC(=O)c3ccc(C)c(Nc4nccc(-c5cccnc5)n4)c3)cc(C(F)(F)F)c2)cn1 [nilotinib]
In short: as §1

[6] = compound: Cc1nc(Nc2n[nH]c3c2CN(C(=O)N[C@H](CN(C)C)c2ccccc2)C3(C)C)c2sccc2n1
In short: as §1

dasatinib = compound: Cc1nc(Nc2ncc(C(=O)Nc3c(C)cccc3Cl)s2)cc(N2CCN(CCO)CC2)n1 [dasatinib]
In short: as §1

[7] = compound: Cc1ncc(-c2ccnc(Nc3ccc(S(C)(=O)=O)cc3)n2)n1C(C)C
In short: as §1

[8] = compound: Cn1cc(-c2ccc3c(c2)CCN3C(=O)Cc2cccc(C(F)(F)F)c2)c2c(N)ncnc21
In short: as §1

[9] = compound: Cn1cc(-c2ccc3nnc(C(F)(F)c4ccc5ncccc5c4)n3n2)cn1
In short: as §1

tipifarnib = compound: Cn1cncc1[C@@](N)(c1ccc(Cl)cc1)c1ccc2c(c1)c(-c1cccc(Cl)c1)cc(=O)n2C [tipifarnib]
In short: as §1

mubritinib = compound: FC(F)(F)c1ccc(/C=C/c2nc(COc3ccc(CCCCn4ccnn4)cc3)co2)cc1 [mubritinib]
In short: as §1

tozasertib = compound: Cc1cc(Nc2cc(N3CCN(C)CC3)nc(Sc3ccc(NC(=O)C4CC4)cc3)n2)n[nH]1 [tozasertib]
In short: as §1

duvelisib = compound: C[C@H](Nc1ncnc2nc[nH]c12)c1cc2cccc(Cl)c2c(=O)n1-c1ccccc1 [duvelisib]
In short: as §1

Measured: log2 fold change

VPS39 (UniProt Q96JC1)
active: crizotinib -0.239
inactive: [1] -0.037 | [2] 0.026 | [3] 0.021 | gandotinib -0.126 | [4] 0.025 | doramapimod 0.008 | ispinesib -0.187 | bafetinib -0.032 | [5] 0.069 | nilotinib -0.019 | [6] -0.068 | dasatinib -0.15 | [7] -0.017 | [8] 0.033 | [9] 0.003 | tipifarnib -0.058 | mubritinib 0.027

VMA21 (UniProt Q3ZAQ7)
inactive: [1] 0.02 | crizotinib 0.016 | [2] 0.071 | [3] 0.058 | gandotinib 0.021 | doramapimod 0.044 | bafetinib -0.089 | [5] 0.019 | nilotinib 0.071 | [6] 0.002 | [7] -0.033 | [8] 0.088 | tipifarnib -0.071 | mubritinib 0.038

VGLL4 isoform 4 (UniProt Q14135)
inactive: [1] 0.093 | crizotinib -0.128 | [2] 0.028 | gandotinib -0.226 | tozasertib 0.115 | doramapimod -0.029 | ispinesib -0.022 | bafetinib 0.014 | [5] -0.069 | nilotinib 0.08 | [6] -0.022 | [7] 0.04 | [9] 0.016 | tipifarnib -0.01 | mubritinib -0.057

VCX3B (UniProt Q9H321)
inactive: [1] -0.121 | [2] 0.004 | [3] -0.015 | duvelisib 0.024 | gandotinib -0.03 | tozasertib -0.069 | [4] -0.057 | bafetinib -0.026 | [5] -0.052 | nilotinib -0.015 | [6] 0.039 | dasatinib 0.035 | [7] -0.112 | [8] -0.071 | tipifarnib -0.07 | mubritinib 0.064

VPS33A (UniProt Q96AX1)
inactive: [1] -0.031 | crizotinib -0.218 | [2] 0.014 | [3] 0.043 | gandotinib -0.091 | [4] 0.049 | doramapimod -0.017 | ispinesib -0.154 | bafetinib -0.066 | [5] 0.091 | nilotinib -0.071 | [6] -0.124 | dasatinib -0.123 | [7] -0.039 | [8] -0.019 | [9] -0.094 | tipifarnib -0.064 | mubritinib 0.098

WDR33 (UniProt Q9C0J8)
inactive: [1] -0.134 | [2] -0.087 | [3] 0.136 | tozasertib 0.133 | ispinesib -0.024 | bafetinib -0.017 | nilotinib 0.143 | [6] 0.097 | [7] 0.01 | [8] -0.014 | [9] -0.03 | tipifarnib 0.115 | mubritinib -0.054

WDR53 (UniProt Q7Z5U6)
inactive: [1] 0.08 | crizotinib -0.037 | [3] 0.225 | duvelisib -0.057 | gandotinib -0.012 | tozasertib -0.021 | [4] -0.052 | doramapimod 0.024 | ispinesib -0.173 | bafetinib -0.059 | [5] -0.009 | dasatinib 0.075 | [8] -0.139 | [9] 0.273 | tipifarnib 0.062 | mubritinib -0.048

WDR47 (UniProt O94967)
inactive: [1] -0.024 | crizotinib 0.048 | [2] 0.024 | [3] -0.003 | gandotinib 0.09 | [4] -0.011 | doramapimod -0.034 | ispinesib 0.025 | bafetinib 0.042 | [5] 0.004 | nilotinib 0.02 | [6] -0.046 | dasatinib -0.036 | [7] 0.067 | [8] 0.002 | [9] 0.033 | tipifarnib 0.039 | mubritinib -0.147

WDR24 (UniProt Q96S15)
inactive: [1] -0.065 | [2] -0.126 | [3] 0.114 | gandotinib 0.07 | tozasertib -0.073 | ispinesib -0.167 | [5] 0.049 | [8] -0.07 | [9] -0.283 | tipifarnib -0.096

WDR81 (UniProt Q562E7)
inactive: [1] 0.338 | crizotinib 0.058 | [2] 0.028 | tozasertib 0.134 | doramapimod -0.063 | ispinesib -0.177 | bafetinib -0.175 | nilotinib 0.012 | [6] -0.047 | [7] -0.064 | [9] 0.026

VDAC1 (UniProt C9JI87)
inactive: [1] 0.017 | [2] -0.195 | [3] 0.275 | [4] -0.281 | bafetinib -0.152 | nilotinib -0.009 | [6] -0.048 | dasatinib 0.277 | [7] -0.106 | [8] -0.16 | [9] 0.22 | tipifarnib 0.242 | mubritinib 0.133
active: ispinesib -0.743

WDR62 isoform 4 (UniProt O43379)
active: gandotinib -0.204
inactive: [1] 0.064 | crizotinib -0.137 | [2] 0.07 | [3] -0.064 | [4] -0.016 | doramapimod -0.057 | ispinesib -0.02 | bafetinib -0.193 | [5] 0.016 | nilotinib -0.149 | [6] -0.041 | dasatinib -0.107 | [7] -0.083 | [8] 0.009 | [9] 0.032 | tipifarnib 0.002 | mubritinib 0.024

WARS1 (UniProt G3V277)
inactive: [1] -0.009 | crizotinib -0.001 | gandotinib -0.218 | doramapimod 0.029 | bafetinib -0.008 | [5] -0.116 | nilotinib -0.065 | [6] 0.039 | [7] -0.034 | mubritinib 0

WIPF1 isoform 3 (UniProt O43516)
inactive: [1] 0.005 | crizotinib 0.076 | [3] 0.022 | duvelisib -0.084 | gandotinib 0.098 | tozasertib -0.429 | [4] -0.027 | doramapimod -0.005 | ispinesib -0.01 | bafetinib -0.109 | [5] 0.026 | nilotinib -0.051 | [6] 0.174 | dasatinib 0.138 | [7] -0.202 | [8] 0.056 | [9] 0.036 | tipifarnib -0.157 | mubritinib 0.277

WDR37 isoform 2 (UniProt Q9Y2I8)
inactive: [1] 0.026 | crizotinib 0 | [2] 0.041 | [3] 0.11 | gandotinib 0.069 | [4] 0.15 | doramapimod 0.02 | ispinesib 0.055 | bafetinib 0.039 | [5] -0.093 | nilotinib -0.073 | [6] 0.039 | dasatinib 0.005 | [7] -0.05 | [8] -0.024 | [9] 0.017 | tipifarnib 0.083 | mubritinib -0.021

VLDLR (UniProt P98155)
inactive: [1] -0.074 | [2] -0.054 | gandotinib 0.111 | tozasertib -0.034 | [5] -0.057 | nilotinib -0.011 | [6] -0.147 | [7] -0.164 | mubritinib -0.051

VPS16 (UniProt Q9H269)
inactive: [1] 0.035 | crizotinib -0.105 | [2] -0.09 | [3] 0.08 | gandotinib -0.163 | [4] 0.092 | doramapimod 0.085 | ispinesib -0.239 | bafetinib 0.041 | [5] 0.178 | nilotinib -0.038 | [6] -0.071 | dasatinib -0.14 | [7] -0.022 | [8] -0.039 | [9] 0.04 | tipifarnib -0.078 | mubritinib 0.083

WASHC5 (UniProt Q12768)
inactive: [1] -0.023 | crizotinib -0.133 | [2] -0.068 | [3] 0.053 | gandotinib -0.002 | [4] 0.032 | doramapimod 0.073 | ispinesib -0.093 | bafetinib -0.052 | [5] 0.044 | nilotinib -0.046 | [6] -0.001 | dasatinib -0.112 | [7] -0.004 | [8] 0.005 | [9] 0.086 | tipifarnib -0.001 | mubritinib 0.027

Retrieved one by one from the list above, two records:
VCX3B (UniProt Q9H321)
inactive: [1] -0.121 | [2] 0.004 | [3] -0.015 | duvelisib 0.024 | gandotinib -0.03 | tozasertib -0.069 | [4] -0.057 | bafetinib -0.026 | [5] -0.052 | nilotinib -0.015 | [6] 0.039 | dasatinib 0.035 | [7] -0.112 | [8] -0.071 | tipifarnib -0.07 | mubritinib 0.064

VPS39 (UniProt Q96JC1)
active: crizotinib -0.239
inactive: [1] -0.037 | [2] 0.026 | [3] 0.021 | gandotinib -0.126 | [4] 0.025 | doramapimod 0.008 | ispinesib -0.187 | bafetinib -0.032 | [5] 0.069 | nilotinib -0.019 | [6] -0.068 | dasatinib -0.15 | [7] -0.017 | [8] 0.033 | [9] 0.003 | tipifarnib -0.058 | mubritinib 0.027

The listing continues:

VSIR (UniProt Q9H7M9)
inactive: [1] 0.037 | crizotinib 0.135 | [2] 0.034 | [3] 0.008 | gandotinib -0.13 | doramapimod 0.035 | ispinesib -0.094 | bafetinib 0.009 | [5] -0.033 | nilotinib 0.024 | [6] -0.021 | [7] -0.021 | [8] 0.103 | [9] 0.042 | mubritinib 0.016
